In this experiment the target is T1, human R1 (HR1), ribonucleotide reductase large subunit, endogenous (human (endogenous in HeLa)) (UniProt P23921).
T1 sequence: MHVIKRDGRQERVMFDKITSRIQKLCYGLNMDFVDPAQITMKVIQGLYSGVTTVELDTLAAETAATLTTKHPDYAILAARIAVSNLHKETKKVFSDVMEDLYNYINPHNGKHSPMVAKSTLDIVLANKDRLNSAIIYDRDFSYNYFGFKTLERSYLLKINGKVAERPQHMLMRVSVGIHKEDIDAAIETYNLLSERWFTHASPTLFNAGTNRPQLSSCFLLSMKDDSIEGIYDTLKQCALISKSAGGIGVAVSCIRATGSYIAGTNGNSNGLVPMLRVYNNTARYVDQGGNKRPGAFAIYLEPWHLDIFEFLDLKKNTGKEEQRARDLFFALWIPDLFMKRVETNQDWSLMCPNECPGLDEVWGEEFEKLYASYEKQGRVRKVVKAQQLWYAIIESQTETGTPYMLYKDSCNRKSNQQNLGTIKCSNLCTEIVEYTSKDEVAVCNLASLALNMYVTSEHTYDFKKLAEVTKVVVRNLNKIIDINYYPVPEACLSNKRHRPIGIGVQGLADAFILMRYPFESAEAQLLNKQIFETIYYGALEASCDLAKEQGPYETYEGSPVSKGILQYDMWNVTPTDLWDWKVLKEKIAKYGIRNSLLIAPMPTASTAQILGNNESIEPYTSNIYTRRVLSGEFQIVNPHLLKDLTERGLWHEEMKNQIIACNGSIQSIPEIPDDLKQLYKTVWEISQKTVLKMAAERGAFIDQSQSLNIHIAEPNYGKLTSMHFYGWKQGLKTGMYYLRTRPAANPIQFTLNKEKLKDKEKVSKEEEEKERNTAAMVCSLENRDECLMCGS
Kind of experiment: co-IP.

These results are taken from paper PMC2900304.

These are yes or no findings as the source states them, for the method shown. Binding seen in cells or lysates may run through a third protein. Binding can be weak; no strength is given.

With “His6-tagged myxoma virus (MYXV) R2 (from UniProt Q9Q8S6)”, the binding entry is “binds”.
